Measurements published in EP0305615A1, “Peptide antagonists for the C5a anaphylatoxin” (priority 1987, dated 1989).
At least one peptide structure holds a part that was inferred or is arguable (an end, a ring closure or a residue). Residues, ends and D or L forms follow the SMILES beside them. No end group written: not given here.

How the values were obtained:
Type in all cases: cell-based
C5a receptor [1] = assay: radioimmunoassay of lactoferrin release from polymorphonuclear neutrophils during C5a-mediated degranulation; settings: peptide approximately 1 mM
C5a receptor [2] = assay: radioimmunoassay of myeloperoxidase release from leukocytes and macrophages in C5a-mediated degranulation; settings: peptide approximately 1 mM
C5a receptor [3] = assay: chemiluminescence assay: release of oxygen-containing radicals from neutrophils in response to C5a; settings: 0.3 ng/ml C5a, 1.0 mM peptide; for Percent Inhibition: chemiluminescence versus control; for Peptide-Inhibited Sample: chemiluminescence

| Compound | Lactoferrin Inhibition (C5a receptor [1]) | Myeloperoxidase Inhibition (C5a receptor [2]) | Percent Inhibition (C5a receptor [3]) | Peptide-Inhibited Sample (C5a receptor [3]) |
| --- | --- | --- | --- | --- |
| C[C@H](NC(=O)CNC(=O)[C@@H](N)CC(=O)O)C(=O)N[C@@H](Cc1ccc(O)cc1)C(=O)O [Asp-Gly-Ala-Tyr] (H-DGAY-OH) | 100% | 100% | 76% | 550,000 counts |
| C[C@H](NC(=O)CNC(=O)[C@@H](N)CC(=O)O)C(=O)O [Asp-Gly-Ala] (H-Asp-Gly-Ala-OH) | 20.2% | 22.6% | 75% | 180,000 counts |
| KKSSYDGAYR [Lys-Lys-Ser-Ser-Tyr-Asp-Gly-Ala-Tyr-Arg] | 8.7% | 22.9% | – | – |
| YDGAY [Tyr-Asp-Gly-Ala-Tyr] | 72.5% | 48.4% | – | – |
| YDGAYR [Tyr-Asp-Gly-Ala-Tyr-Arg] | 28.4% | 22.4% | 64% | 430,000 counts |
